Measurements: article PMC9981285
These are yes or no findings as the source states them, for the method shown. In cells and extracts the contact can be indirect. Here binding means that the protein was enriched with, or labelled near, the bait; the list need not be complete. Sequences can lack the tags named with a protein.

Amino acid sequences for entries named in this document (tags omitted).
UniProt P40763: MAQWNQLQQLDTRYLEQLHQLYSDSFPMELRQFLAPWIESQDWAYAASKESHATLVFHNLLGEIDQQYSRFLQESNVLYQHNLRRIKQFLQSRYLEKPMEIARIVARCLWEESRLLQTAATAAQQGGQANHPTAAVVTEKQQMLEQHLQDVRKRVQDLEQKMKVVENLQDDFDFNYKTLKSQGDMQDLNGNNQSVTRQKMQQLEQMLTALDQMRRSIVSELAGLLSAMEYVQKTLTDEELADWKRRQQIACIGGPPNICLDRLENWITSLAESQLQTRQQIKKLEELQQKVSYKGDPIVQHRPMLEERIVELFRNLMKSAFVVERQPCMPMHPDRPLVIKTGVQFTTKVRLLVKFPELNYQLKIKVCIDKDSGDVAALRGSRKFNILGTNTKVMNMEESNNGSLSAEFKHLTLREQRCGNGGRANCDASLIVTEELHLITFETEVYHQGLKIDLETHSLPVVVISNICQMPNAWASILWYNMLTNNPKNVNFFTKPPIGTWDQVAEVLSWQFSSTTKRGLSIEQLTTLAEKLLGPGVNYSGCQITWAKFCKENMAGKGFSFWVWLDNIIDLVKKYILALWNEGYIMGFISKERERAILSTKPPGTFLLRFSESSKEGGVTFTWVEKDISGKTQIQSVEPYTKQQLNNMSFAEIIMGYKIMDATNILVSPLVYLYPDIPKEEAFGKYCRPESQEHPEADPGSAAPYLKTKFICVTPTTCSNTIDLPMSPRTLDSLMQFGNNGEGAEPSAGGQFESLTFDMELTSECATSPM

Target: T1, 3 × FLAG-GINS2 (UniProt Q9Y248)
T1 sequence: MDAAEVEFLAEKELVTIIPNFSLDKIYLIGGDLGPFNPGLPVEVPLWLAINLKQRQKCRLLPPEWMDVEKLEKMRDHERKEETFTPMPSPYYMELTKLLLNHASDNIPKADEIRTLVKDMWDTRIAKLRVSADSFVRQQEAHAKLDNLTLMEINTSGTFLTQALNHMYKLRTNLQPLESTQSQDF
Experiment: affinity purification with mass spectrometry; lysates (RIPA) of stable cells with empty vector (NC) or 3 × FLAG-GINS2 (OE); Co-IP with FLAG beads, SDS-PAGE, Coomassie staining, gel bands digested with trypsin, LC-MS

binding: binds
Substance: STAT3 (from UniProt P40763 1-770)
